Measured values as given in patent US20090214662A1 (UNIVERSITY OF MARYLAND BALTIMORE, published 2009).
Results are given in words; binding and its absence hold for the method and conditions named. Binding can be weak; no strength is given.

Chains of the proteins cited; added tags and fusions are not shown. Lines headed by an entry give the natural chain unless they say otherwise; changes in a name come on top.
UniProt P02751: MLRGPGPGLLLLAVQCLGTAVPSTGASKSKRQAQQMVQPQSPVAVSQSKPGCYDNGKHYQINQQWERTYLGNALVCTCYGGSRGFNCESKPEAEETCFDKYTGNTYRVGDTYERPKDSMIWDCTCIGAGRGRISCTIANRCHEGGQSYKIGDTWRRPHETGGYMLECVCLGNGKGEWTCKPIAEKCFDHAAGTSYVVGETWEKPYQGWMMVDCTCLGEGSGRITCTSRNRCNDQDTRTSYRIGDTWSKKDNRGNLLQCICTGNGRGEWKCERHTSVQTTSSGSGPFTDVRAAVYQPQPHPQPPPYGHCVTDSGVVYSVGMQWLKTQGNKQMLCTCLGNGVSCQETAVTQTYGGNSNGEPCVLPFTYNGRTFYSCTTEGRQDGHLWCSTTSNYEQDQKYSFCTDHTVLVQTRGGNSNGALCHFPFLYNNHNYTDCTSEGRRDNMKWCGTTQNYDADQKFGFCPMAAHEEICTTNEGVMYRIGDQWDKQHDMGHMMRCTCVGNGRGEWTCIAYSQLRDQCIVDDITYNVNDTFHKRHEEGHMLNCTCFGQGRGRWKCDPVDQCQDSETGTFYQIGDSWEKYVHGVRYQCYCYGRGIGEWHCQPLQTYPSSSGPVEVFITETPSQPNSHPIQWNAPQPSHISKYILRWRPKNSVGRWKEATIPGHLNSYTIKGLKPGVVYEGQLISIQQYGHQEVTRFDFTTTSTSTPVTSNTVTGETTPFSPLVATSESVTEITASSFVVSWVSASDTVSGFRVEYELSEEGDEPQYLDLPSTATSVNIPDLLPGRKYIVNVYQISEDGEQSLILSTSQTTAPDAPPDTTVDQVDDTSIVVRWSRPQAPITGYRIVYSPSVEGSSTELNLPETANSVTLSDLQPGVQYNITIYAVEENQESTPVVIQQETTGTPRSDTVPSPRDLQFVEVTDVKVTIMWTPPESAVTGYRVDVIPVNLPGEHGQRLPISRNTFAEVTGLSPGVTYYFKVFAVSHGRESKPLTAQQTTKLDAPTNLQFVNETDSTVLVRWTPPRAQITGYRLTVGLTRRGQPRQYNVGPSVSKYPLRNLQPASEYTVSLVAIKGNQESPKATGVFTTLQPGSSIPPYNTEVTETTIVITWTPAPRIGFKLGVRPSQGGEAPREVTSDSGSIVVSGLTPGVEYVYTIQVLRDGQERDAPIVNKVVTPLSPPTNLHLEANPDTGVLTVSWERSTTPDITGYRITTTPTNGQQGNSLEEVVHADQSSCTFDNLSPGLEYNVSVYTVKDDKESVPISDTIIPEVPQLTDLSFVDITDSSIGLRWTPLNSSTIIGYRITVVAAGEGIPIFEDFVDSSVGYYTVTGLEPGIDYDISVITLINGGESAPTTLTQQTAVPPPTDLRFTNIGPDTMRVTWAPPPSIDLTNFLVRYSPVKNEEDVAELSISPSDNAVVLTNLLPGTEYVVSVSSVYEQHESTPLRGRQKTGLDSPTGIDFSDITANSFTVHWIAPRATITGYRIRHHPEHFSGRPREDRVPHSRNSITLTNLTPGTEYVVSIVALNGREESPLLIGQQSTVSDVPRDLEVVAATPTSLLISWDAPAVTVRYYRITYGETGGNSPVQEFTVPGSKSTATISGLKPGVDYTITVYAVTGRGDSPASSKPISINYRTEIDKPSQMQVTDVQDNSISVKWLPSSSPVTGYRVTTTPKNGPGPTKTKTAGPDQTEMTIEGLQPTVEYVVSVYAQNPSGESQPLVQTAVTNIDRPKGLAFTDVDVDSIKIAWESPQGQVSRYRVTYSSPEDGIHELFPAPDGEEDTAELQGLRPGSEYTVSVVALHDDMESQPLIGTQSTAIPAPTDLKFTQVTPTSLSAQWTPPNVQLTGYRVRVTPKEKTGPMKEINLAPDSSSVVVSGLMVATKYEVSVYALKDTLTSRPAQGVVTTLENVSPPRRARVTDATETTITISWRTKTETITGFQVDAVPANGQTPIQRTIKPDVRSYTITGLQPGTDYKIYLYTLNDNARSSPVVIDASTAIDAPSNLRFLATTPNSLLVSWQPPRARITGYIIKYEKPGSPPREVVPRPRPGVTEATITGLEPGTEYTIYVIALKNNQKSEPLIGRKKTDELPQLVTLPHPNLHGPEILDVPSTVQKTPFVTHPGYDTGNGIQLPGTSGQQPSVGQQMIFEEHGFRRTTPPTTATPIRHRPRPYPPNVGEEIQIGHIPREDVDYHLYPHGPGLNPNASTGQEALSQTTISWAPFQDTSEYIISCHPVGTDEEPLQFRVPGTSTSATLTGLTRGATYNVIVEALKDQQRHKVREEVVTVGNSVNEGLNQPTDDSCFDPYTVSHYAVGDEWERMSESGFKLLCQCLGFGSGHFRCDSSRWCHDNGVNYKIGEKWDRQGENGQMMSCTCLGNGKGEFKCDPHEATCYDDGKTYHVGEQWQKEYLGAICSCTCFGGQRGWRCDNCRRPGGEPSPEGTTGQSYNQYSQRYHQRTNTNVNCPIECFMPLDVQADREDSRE

Columns and labels:
[1] = biological target: T1, Lactobacillus brevis ATCC 8287 SlpA surface layer protein (Lactobacillus brevis ATCC 8287) (UniProt Q05044); assay: SPR (BIAcore 3000), SlpA coupled to a CM5 chip, fibronectin injected at graded concentrations (legend: 1 mM-10 nM), no benzamidine
T1 sequence (looked up): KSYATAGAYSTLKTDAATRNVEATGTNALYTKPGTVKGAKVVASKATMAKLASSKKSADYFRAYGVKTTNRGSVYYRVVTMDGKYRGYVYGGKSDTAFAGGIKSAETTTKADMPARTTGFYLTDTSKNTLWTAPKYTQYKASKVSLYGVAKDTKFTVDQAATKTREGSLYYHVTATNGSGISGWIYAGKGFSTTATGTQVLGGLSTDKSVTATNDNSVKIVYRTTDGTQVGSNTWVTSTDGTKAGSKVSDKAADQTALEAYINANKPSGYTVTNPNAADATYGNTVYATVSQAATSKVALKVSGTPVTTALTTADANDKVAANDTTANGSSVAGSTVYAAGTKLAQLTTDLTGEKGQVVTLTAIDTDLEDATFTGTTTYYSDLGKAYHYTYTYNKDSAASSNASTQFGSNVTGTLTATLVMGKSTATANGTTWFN

[2] = biological target: T1, Lactobacillus brevis ATCC 8287 SlpA surface layer protein (Lactobacillus brevis ATCC 8287); assay: SPR (BIAcore 3000), SlpA immobilised
[3] = biological target: T1, Lactobacillus brevis ATCC 8287 SlpA surface layer protein (Lactobacillus brevis ATCC 8287); assay: SPR (BIAcore 3000), SlpA coupled to a CM5 chip, fibronectin injected at graded concentrations (legend: 1 mM-10 nM), in the presence of 1 mM benzamidine
[4] = biological target: T1, Lactobacillus brevis ATCC 8287 SlpA surface layer protein (Lactobacillus brevis ATCC 8287); assay: SPR sensorgrams, SlpA immobilised, fibronectin 1 mM-10 nM as printed

Measured: binding

Fibronectin (human plasma) (from UniProt P02751)
binds: all assays above
